# Results published in PMC11470042.
# Sequences of proteins named here, by UniProt entry; tags and fusion partners are left off.
# UniProt P09012: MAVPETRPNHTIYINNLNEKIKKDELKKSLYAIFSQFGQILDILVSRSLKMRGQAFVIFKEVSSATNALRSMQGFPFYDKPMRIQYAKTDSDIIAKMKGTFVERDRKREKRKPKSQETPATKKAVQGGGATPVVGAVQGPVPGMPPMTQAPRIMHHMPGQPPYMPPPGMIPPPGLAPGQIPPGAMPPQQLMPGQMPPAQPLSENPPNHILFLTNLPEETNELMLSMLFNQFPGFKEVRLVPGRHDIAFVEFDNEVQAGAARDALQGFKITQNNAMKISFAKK
# UniProt Q9Y297: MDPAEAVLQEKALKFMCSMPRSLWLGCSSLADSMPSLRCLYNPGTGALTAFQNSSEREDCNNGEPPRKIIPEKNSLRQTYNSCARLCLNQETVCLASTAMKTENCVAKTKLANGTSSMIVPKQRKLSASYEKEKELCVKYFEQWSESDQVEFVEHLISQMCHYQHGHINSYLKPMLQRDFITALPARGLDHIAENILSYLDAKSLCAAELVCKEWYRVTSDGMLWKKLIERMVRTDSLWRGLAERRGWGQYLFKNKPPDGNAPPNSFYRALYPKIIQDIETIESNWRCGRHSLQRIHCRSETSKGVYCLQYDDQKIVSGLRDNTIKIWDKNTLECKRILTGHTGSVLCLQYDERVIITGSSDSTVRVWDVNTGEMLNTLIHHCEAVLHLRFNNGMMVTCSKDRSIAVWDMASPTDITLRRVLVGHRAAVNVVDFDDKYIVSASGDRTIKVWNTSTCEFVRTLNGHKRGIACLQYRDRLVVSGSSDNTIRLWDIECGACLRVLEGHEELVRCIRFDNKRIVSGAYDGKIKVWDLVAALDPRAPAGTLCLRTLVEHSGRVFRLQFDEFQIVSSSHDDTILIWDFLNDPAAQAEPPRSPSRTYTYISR
# UniProt Q9UKB1: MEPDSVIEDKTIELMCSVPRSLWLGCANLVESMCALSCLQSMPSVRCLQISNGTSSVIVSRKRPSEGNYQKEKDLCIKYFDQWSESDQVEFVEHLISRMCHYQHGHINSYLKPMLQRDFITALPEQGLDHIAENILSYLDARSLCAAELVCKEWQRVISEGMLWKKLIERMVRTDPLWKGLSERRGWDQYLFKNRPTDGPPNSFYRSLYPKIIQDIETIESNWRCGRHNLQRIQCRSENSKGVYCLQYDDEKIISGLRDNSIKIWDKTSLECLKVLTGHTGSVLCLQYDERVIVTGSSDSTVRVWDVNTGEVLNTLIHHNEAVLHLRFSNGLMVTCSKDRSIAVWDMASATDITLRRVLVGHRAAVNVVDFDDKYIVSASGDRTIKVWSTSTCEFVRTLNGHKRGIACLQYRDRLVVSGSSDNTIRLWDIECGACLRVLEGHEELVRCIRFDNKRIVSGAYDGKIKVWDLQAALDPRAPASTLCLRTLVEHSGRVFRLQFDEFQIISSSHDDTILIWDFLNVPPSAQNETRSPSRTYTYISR
# These are yes or no findings as the source states them, for the method shown. Binding seen in cells or lysates may run through a third protein. Some binding calls cover weakened binding; strength is not graded here.
# How the values were obtained:
# [1] = target: Small ribonucleoprotein peptide A (SNRPA) (human (endogenous in PANC-1)) (UniProt P09012); assay: co-IP; cell lysates of PANC-1 cells incubated with SNRPA antibodies, blotted for BTRC and FBXW11; also in PANC-1 GR and PANC-1 WT cells transfected with sh-cNEK6, OE-cNEK6, or wild-type or mutant cNEK6
# [2] = target: FLAG-tagged full-length SNRPA (UniProt P09012); assay: co-IP; co-transfection of Myc-tagged BTRC and FLAG-tagged SNRPA (full length or truncations of one partner)
binding [1],binding [2],Substance
binds,,"BTRC, ubiquitin E3 ligase (from UniProt Q9Y297 1-605)"
no binding,,"FBXW11, E3 ligase (from UniProt Q9UKB1 1-542)"
,binds,Myc-tagged full-length BTRC (from UniProt Q9Y297 1-605)
